Part of at least one peptide drawing is inferred or uncertain, most often the ends. Some compounds share one wording; it may come from a single statement. Ends that are not written are not given here.
Assays:
TLR4 = target: T1, TLR4 (Mus musculus, UniProt Q9QUK6); assay: TNFα secretion by RAW264.7 in response to LPS (TLR4 activator); format: cell-based, murine; details: LPS 10 ng/ml, all peptide concentrations
T1 construct: endogenous in cells; host or cells: RAW264.7 murine macrophages (ATCC TIB-71)
T1 sequence (Q9QUK6 26-835): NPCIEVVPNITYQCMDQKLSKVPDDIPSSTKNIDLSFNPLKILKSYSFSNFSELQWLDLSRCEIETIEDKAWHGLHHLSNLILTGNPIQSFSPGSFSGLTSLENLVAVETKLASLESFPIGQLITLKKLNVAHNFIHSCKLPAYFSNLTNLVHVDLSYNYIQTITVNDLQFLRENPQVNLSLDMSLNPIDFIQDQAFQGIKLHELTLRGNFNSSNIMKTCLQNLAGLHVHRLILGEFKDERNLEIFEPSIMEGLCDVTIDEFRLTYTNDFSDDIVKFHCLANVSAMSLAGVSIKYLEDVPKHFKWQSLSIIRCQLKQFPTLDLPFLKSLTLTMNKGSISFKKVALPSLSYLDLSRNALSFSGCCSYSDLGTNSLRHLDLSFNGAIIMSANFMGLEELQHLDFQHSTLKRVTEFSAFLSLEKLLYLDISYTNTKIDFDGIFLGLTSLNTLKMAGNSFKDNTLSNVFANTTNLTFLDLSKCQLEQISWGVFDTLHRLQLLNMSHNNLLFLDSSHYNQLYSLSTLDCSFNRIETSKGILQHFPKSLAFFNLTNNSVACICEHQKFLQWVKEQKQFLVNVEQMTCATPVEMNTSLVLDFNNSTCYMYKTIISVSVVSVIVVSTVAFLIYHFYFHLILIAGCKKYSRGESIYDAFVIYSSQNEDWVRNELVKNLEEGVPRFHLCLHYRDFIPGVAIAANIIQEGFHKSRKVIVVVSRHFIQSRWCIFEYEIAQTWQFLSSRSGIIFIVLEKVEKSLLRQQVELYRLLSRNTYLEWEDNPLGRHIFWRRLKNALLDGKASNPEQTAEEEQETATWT
T1 sequence (Q9JHF9 19-160 partner): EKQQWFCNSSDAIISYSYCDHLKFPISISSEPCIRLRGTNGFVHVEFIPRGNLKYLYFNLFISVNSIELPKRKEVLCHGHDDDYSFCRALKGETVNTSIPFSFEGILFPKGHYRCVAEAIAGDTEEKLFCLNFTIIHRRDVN

Amino acid sequences for entries named in this document (tags omitted). Residues count along the entry.
UniProt Q9QUN7, 25-784: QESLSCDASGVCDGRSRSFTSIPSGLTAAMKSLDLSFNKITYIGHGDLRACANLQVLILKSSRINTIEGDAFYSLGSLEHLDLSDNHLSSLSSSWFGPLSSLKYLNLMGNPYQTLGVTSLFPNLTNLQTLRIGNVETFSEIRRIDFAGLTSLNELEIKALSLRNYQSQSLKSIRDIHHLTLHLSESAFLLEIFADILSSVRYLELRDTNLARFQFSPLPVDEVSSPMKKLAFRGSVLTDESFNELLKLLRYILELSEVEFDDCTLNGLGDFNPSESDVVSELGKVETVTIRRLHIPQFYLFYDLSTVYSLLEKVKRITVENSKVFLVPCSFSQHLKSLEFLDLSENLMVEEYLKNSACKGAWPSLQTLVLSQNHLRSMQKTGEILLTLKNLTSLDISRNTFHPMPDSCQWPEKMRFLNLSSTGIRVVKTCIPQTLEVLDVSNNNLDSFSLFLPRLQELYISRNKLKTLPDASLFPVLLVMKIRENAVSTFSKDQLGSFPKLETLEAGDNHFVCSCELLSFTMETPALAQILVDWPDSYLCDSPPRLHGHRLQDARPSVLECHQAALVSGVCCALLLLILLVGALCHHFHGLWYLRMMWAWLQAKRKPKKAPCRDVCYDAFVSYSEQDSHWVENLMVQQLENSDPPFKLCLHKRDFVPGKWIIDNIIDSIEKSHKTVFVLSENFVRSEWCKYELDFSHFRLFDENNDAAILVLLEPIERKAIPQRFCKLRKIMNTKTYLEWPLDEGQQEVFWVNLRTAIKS

TLR2 = target: T2, TLR2 (Mus musculus, UniProt Q9QUN7); assay: TNFα secretion by RAW264.7 in response to LTA (TLR2 activator); format: cell-based, murine; details: 100 ng/ml LTA, dose-dependent, highest at 10 μM peptide, ELISA after 5 h
T2 construct: endogenous in cells; host or cells: RAW264.7 murine macrophages (ATCC TIB-71)

Row | Substance | effect on TNFα secretion induced by LPS (TLR4) | inhibition of TNFα secretion after LTA activation (TLR2)
1 | KKALVSGVAAALLLLILLVGKK-NH2 [mTLR2 N′ TM (C to A)] | no effect | –
2 | KKLAVTGAFLALYFDLPWKK-NH2 [mTLR1 C′ TM (C to A)] | no effect | significantly inhibit
3 | KKLILLVGALAHHFHGLWKK-NH2 [mTLR2 C′ TM (C to A)] | no effect | significantly inhibit
4 | KKLLTVTIGATMLVLAVTGAKK-NH2 [mTLR1 N′ TM] | no effect | significantly inhibit
